Values quoted from earlier work, collected in patent US11564394B2, “Distorted gold (I)-phosphine complexes and methods for use as antifungal agents” (University of Kentucky Research Foundation, priority 2019, dated 2023).
Some entries share one result that the patent states for a list of compounds.

Tested on: Candida biofilms
Details: FDA-approved antifungal agents; cited from earlier work

| SMILES | SMIC90 (literature) |
| --- | --- |
| OC(Cn1cncn1)(Cn1cncn1)c1ccc(F)cc1F [FLC, fluconazole] | exceeding 512 μg/mL |
| C[C@@H](c1ncncc1F)[C@](O)(Cn1cncn1)c1ccc(F)cc1F [VRC, voriconazole] | exceeding 512 μg/mL |
